The structures appear in SMILES notation. The list shows a part of the results. Many values rest on one well or one pass, so single values are uncertain.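 Imaging used 1,536-well plates; nuclei positive for cleaved PARP by antibody were divided by total DNA-stained nuclei to yield the apoptosis fraction. Doses for screening kept most cells viable, and cell lines differ markedly in resting and induced cleaved-PARP levels.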

The subject of this test is 501Mel. As to the kind of experiment: cleaved PARP positive nuclei fraction relative to DMSO control; melanoma cells; higher = more apoptosis. The following applies: library dose: low library concentration; 72 h.
Take `C[C@]1(O)C[C@@H](c2nc(-c3ccc4ccc(-c5ccccc5)nc4c3)c3c(N)nccn32)C1` + CC(=O)O[C@@]12CO[C@@H]1C[C@H](O)[C@@]1(C)C(=O)[C@H](O)C3=C(C)[C@@H](OC(=O)[C@H](O)[C@@H](NC(=O)OC(C)(C)C)c4ccccc4)C[C@@](O)([C@@H](OC(=O)c4ccccc4)[C@H]21)C3(C)C [Docetaxel] (first compound 0.4 µM, partner dose 0.0001 µM): the “cleaved PARP positive nuclei fraction” value was determined as 811%.
Next, `CC1(C)CCC(c2ccc(Cl)cc2)=C(CN2CCN(c3ccc(C(=O)NS(=O)(=O)c4ccc(N[C@H](CCN5CCOCC5)CSc5ccccc5)c(S(=O)(=O)C(F)(F)F)c4)cc3)CC2)C1` + Cn1sc(=O)n(Cc2ccccc2)c1=O [TDZD-8] (first compound 0.4 µM, partner dose 0.4 µM): 68.5%; `C[C@]1(O)C[C@@H](c2nc(-c3ccc4ccc(-c5ccccc5)nc4c3)c3c(N)nccn32)C1` + OCc1c[nH]c2ccccc12 [Indole-3-carbinol] (first compound 0.4 µM, partner dose 0.8 µM): 337%.
With `CN(c1ncccc1CNc1nc(Nc2ccc3c(c2)CC(=O)N3)ncc1C(F)(F)F)S(C)(=O)=O` + C[C@]1(c2nc3c(C(N)=O)cccc3[nH]2)CCCN1 [Veliparib] (first compound 0.08 µM, partner dose 1.4 µM) the figure was 79%; with `C[C@]1(O)C[C@@H](c2nc(-c3ccc4ccc(-c5ccccc5)nc4c3)c3c(N)nccn32)C1` + CCCS(=O)(=O)Nc1ccc(F)c(C(=O)c2c[nH]c3ncc(Cl)cc23)c1F [PLX4720] (first compound 0.4 µM, partner dose 0.08 µM), 190%.
Take `CN(c1ncccc1CNc1nc(Nc2ccc3c(c2)CC(=O)N3)ncc1C(F)(F)F)S(C)(=O)=O` + Cn1c(=O)n(-c2ccc(C(C)(C)C#N)cc2)c2c3cc(-c4cnc5ccccc5c4)ccc3ncc21 [NVP-BEZ235] (first compound 0.08 µM, partner dose 0.004 µM): the “cleaved PARP positive nuclei fraction” value is 145%.
Next, `NC(=O)c1ccc(N(C(N)=O)c2c(F)cccc2F)nc1-c1ccc(F)cc1F` + CC(=O)c1c(C)c2cnc(Nc3ccc(N4CCNCC4)cn3)nc2n(C2CCCC2)c1=O [palbociclib] (first compound 0.4 µM, partner dose 0.04 µM): 237%; `CN(c1ncccc1CNc1nc(Nc2ccc3c(c2)CC(=O)N3)ncc1C(F)(F)F)S(C)(=O)=O` + CCCS(=O)(=O)Nc1ccc(F)c(C(=O)c2c[nH]c3ncc(Cl)cc23)c1F [PLX4720] (first compound 0.08 µM, partner dose 0.08 µM): 55.9%.
With `CCCCCCCCc1ccc(CCC(N)(CO)CO)cc1` [fingolimod] + Nc1nc(F)nc2c1ncn2[C@@H]1O[C@H](CO)[C@@H](O)[C@@H]1O [fludarabine] (first compound 2 µM, partner dose 0.2 µM) the figure was 9090%; with `CCCCCCCCc1ccc(CCC(N)(CO)CO)cc1` [fingolimod] + CC(=O)c1c(C)c2cnc(Nc3ccc(N4CCNCC4)cn3)nc2n(C2CCCC2)c1=O [palbociclib] (first compound 2 µM, partner dose 0.04 µM), 233%.
For `CC(=O)O[C@@]12CO[C@@H]1C[C@H](O)[C@@]1(C)C(=O)[C@H](O)C3=C(C)[C@@H](OC(=O)[C@H](O)[C@@H](NC(=O)OC(C)(C)C)c4ccccc4)C[C@@](O)([C@@H](OC(=O)c4ccccc4)[C@H]21)C3(C)C` [Docetaxel] + Cc1cc(Nc2cc(N3CCN(C)CC3)nc(/C=C/c3ccccc3)n2)n[nH]1 [ENMD2076] (first compound 0.0001 µM, partner dose 0.04 µM), the “cleaved PARP positive nuclei fraction” value is 193%.
Next, `CC1(C)CCC(c2ccc(Cl)cc2)=C(CN2CCN(c3ccc(C(=O)NS(=O)(=O)c4ccc(N[C@H](CCN5CCOCC5)CSc5ccccc5)c(S(=O)(=O)C(F)(F)F)c4)cc3)CC2)C1` + CCCS(=O)(=O)Nc1ccc(F)c(C(=O)c2c[nH]c3ncc(Cl)cc23)c1F [PLX4720] (first compound 0.4 µM, partner dose 0.08 µM): 50.4%; `CC(=O)O[C@@]12CO[C@@H]1C[C@H](O)[C@@]1(C)C(=O)[C@H](O)C3=C(C)[C@@H](OC(=O)[C@H](O)[C@@H](NC(=O)OC(C)(C)C)c4ccccc4)C[C@@](O)([C@@H](OC(=O)c4ccccc4)[C@H]21)C3(C)C` [Docetaxel] + Cn1c(Nc2ccc(C(F)(F)F)cc2)nc2cc(Oc3ccnc(-c4ncc(C(F)(F)F)[nH]4)c3)ccc21 [CHIR265] (first compound 0.0001 µM, partner dose 0.08 µM): 2280%.
With `Cn1sc(=O)n(Cc2ccccc2)c1=O` + CC(C)C[C@H](NC(=O)[C@H](Cc1ccccc1)NC(=O)c1cnccn1)B(O)O [Bortezomib] (first compound 0.4 µM, partner dose 0.001 µM) the figure was 121%; with `COc1ccc(C2=N[C@@H](c3ccc(Cl)cc3)[C@@H](c3ccc(Cl)cc3)N2C(=O)N2CCNC(=O)C2)c(OC(C)C)c1` [Nutlin-3] + C=CCNC1=C2C[C@@H](C)C[C@H](OC)[C@H](O)[C@@H](C)/C=C(\C)[C@H](OC(N)=O)[C@@H](OC)/C=C\C=C(/C)C(=O)NC(=CC1=O)C2=O [Tanespimycin] (first compound 0.1 µM, partner dose 0.002 µM), 89.2%; with `C[C@@H](N)c1ccc(C(=O)Nc2ccnc3[nH]ccc23)cc1` + CC(C)C[C@H](NC(=O)[C@H](Cc1ccccc1)NC(=O)c1cnccn1)B(O)O [Bortezomib] (first compound 0.4 µM, partner dose 0.001 µM), 457%.
Next, `C[C@]1(O)C[C@@H](c2nc(-c3ccc4ccc(-c5ccccc5)nc4c3)c3c(N)nccn32)C1` + CS(=O)(=O)CCNCc1ccc(-c2ccc3ncnc(Nc4ccc(OCc5cccc(F)c5)c(Cl)c4)c3c2)o1 [lapatinib] (first compound 0.4 µM, partner dose 0.8 µM): 72.8%; `Cn1sc(=O)n(Cc2ccccc2)c1=O` + CNC(=O)c1cc(Oc2ccc(NC(=O)Nc3ccc(Cl)c(C(F)(F)F)c3)cc2)ccn1 [sorafenib] (first compound 0.4 µM, partner dose 0.4 µM): 72.7%.
Regarding `CN(c1ncccc1CNc1nc(Nc2ccc3c(c2)CC(=O)N3)ncc1C(F)(F)F)S(C)(=O)=O` + CS(=O)(=O)CCNCc1ccc(-c2ccc3ncnc(Nc4ccc(OCc5cccc(F)c5)c(Cl)c4)c3c2)o1 [lapatinib] (first compound 0.08 µM, partner dose 0.8 µM), the “cleaved PARP positive nuclei fraction” value was 120%.
`CCCCCCCCc1ccc(CCC(N)(CO)CO)cc1` [fingolimod] + CC(=O)O[C@@]12CO[C@@H]1C[C@H](O)[C@@]1(C)C(=O)[C@H](O)C3=C(C)[C@@H](OC(=O)[C@H](O)[C@@H](NC(=O)OC(C)(C)C)c4ccccc4)C[C@@](O)([C@@H](OC(=O)c4ccccc4)[C@H]21)C3(C)C [Docetaxel] (first compound 2 µM, partner dose 0.0001 µM): the “cleaved PARP positive nuclei fraction” value was found to be 408%.
As for `CCCCCCCCc1ccc(CCC(N)(CO)CO)cc1` [fingolimod] + COCC[n+]1c2c(n(Cc3cnccn3)c1C)C(=O)c1ccccc1C2=O [YM155] (first compound 2 µM, partner dose 0.0004 µM), the “cleaved PARP positive nuclei fraction” value amounted to 155%.
With `NC1(c2ccc(-c3nc4ccn5c(=O)[nH]nc5c4cc3-c3ccccc3)cc2)CCC1` + C[C@@H](Oc1cc(-c2cnn(C3CCNCC3)c2)cnc1N)c1c(Cl)ccc(F)c1Cl [Crizotinib] (first compound 0.4 µM, partner dose 0.2 µM) the figure was 145%; with `C[C@]1(O)C[C@@H](c2nc(-c3ccc4ccc(-c5ccccc5)nc4c3)c3c(N)nccn32)C1` + Cc1cc(Nc2cc(N3CCN(C)CC3)nc(/C=C/c3ccccc3)n2)n[nH]1 [ENMD2076] (first compound 0.4 µM, partner dose 0.04 µM), 94.6%.
With `Cn1sc(=O)n(Cc2ccccc2)c1=O` + C[C@@H](Oc1cc(-c2cnn(C3CCNCC3)c2)cnc1N)c1c(Cl)ccc(F)c1Cl [Crizotinib] (first compound 0.4 µM, partner dose 0.2 µM) the figure was 73.7%; with `NC(=O)c1ccc(N(C(N)=O)c2c(F)cccc2F)nc1-c1ccc(F)cc1F` + CCCCCCCCc1ccc(CCC(N)(CO)CO)cc1 [fingolimod] (first compound 0.4 µM, partner dose 2 µM), 259%; with `NC1(c2ccc(-c3nc4ccn5c(=O)[nH]nc5c4cc3-c3ccccc3)cc2)CCC1` + CO[C@H]1C[C@@H]2CC[C@@H](C)[C@@](O)(O2)C(=O)C(=O)N2CCCC[C@H]2C(=O)O[C@H]([C@H](C)C[C@@H]2CC[C@@H](OCCO)[C@H](OC)C2)CC(=O)[C@H](C)/C=C(\C)[C@@H](O)[C@@H](OC)C(=O)[C@H](C)C[C@H](C)/C=C/C=C/C=C/1C [everolimus] (first compound 0.4 µM, partner dose 0.02 µM), 207%.

(Values after the supplement of paper PMC4604168 (melanoma cell lines).)
